The results in this text go back to patent US20050140051A1, “Method for making fog resistant thermoplastic articles and articles made therefrom” (priority 2003, published 2005).

A short description of the series: Anti-fog (hot fog) test of additive as coating on polycarbonate plaque held over 50° C. water.
Where [1] appears, read: 3M anti-static additive coated on polycarbonate plaque, coated side down over water at 50° C., time until visible fog.
Setting [2] is: coating on polycarbonate, over water at 50° C., perfluorinated vs aliphatic tail.
Setting [3] is: salts and nonionic surfactants as coating on polycarbonate, over water at 50° C.

Where only a bound is given, the exact number is not on record here.

Regarding `CC[N+](CC)(CC)CC.O=S(=O)([N-]S(=O)(=O)C(F)(F)F)C(F)(F)F` [CE 5, (CH3CH2)4N^+−N(SO2SCF3)], the “Fog free time as coating” value under setting [1] is <1 s.
For the compound `CCCC[P+](CCCC)(CCCC)CCCC.O=S(=O)([O-])C(F)(F)C(F)(F)C(F)(F)C(F)(F)F` [CE 8, F3C(CF2)3SO3^−+P(C4H9)4], the “Fog free time as coating” value under setting [2] is recorded as <1 s.
Take `CCCCCCCC[N+](C)(C)CCO.O=S(=O)([O-])C(F)(F)F` [Example 1, C8H17N(CH3)2(CH2CH2OH)^+−O3SCF3]: the “Fog free time as coating” value under setting [1] was >60 s.
`CCCCCCCS(=O)(=O)[O-].CCCC[P+](CCCC)(CCCC)CCCC` [Example 4, H3C(CH2)6SO3^−+P(C4H9)4]: the “Fog free time as coating” value under setting [3] was >60 s.
On to “H3C(CH2)11(C6H4)SO3^−+P(C4H9)4 [Example 5]”, for which the “Fog free time as coating” value under setting [3] is >60 s.
For “C8H17N(CH3)2(CH2CH2OH)^+−N(SO2SCF3) [CE 2]”, the “Fog free time as coating” value under setting [1] came out at 11 s.
With “C8H17N(CH3)2(CH2CH2OH)^+−O3SC4F9 [Example 2]”, under setting [1], the “Fog free time as coating” value was >60 s.
The same measure, in the same setting: the result for `CCCC[N+](CCCC)(CCCC)CCCC.O=S(=O)([N-]S(=O)(=O)C(F)(F)F)C(F)(F)F` [CE 7, (C4H9)4N^+−N(SO2CF3)2] reads <1 s; that for `CC[N+](CC)(CC)CC.O=S(=O)([O-])C(F)(F)F` [CE 3, (CH3CH2)4N^+−O3SCF3], 6 s.
As for `CCCCS(=O)(=O)[O-].CCCC[P+](CCCC)(CCCC)CCCC` [Example 3, H3C(CH2)3SO3^−+P(C4H9)4], the “Fog free time as coating” value under setting [2] stood at 22 s.
Turning to `CCCC[N+](CCCC)(CCCC)CCCC.O=S(=O)([O-])C(F)(F)F` [CE 4, (C4H9)4N^+−O3SCF3], the “Fog free time as coating” value under setting [1] stood at 3 s.
Same read-out and setting: for `CCCC[N+](C)(CCCC)CCCC.O=S(=O)([O-])C(F)(F)C(F)(F)C(F)(F)C(F)(F)F` [CE 6, (C4H9)3N^+CH3^−O3SC4F9] the value was <1 s.
